# Source: the supplement of paper PMC6411743
# Chains of the proteins cited; added tags and fusions are not shown. Lines headed by an entry give the natural chain unless they say otherwise; changes in a name come on top.
# UniProt Q9NWW6: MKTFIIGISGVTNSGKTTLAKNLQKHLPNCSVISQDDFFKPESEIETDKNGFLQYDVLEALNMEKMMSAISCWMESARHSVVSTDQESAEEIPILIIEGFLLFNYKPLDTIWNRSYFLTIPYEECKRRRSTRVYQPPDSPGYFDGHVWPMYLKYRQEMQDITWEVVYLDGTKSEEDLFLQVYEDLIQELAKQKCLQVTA
# UniProt Q7Z392: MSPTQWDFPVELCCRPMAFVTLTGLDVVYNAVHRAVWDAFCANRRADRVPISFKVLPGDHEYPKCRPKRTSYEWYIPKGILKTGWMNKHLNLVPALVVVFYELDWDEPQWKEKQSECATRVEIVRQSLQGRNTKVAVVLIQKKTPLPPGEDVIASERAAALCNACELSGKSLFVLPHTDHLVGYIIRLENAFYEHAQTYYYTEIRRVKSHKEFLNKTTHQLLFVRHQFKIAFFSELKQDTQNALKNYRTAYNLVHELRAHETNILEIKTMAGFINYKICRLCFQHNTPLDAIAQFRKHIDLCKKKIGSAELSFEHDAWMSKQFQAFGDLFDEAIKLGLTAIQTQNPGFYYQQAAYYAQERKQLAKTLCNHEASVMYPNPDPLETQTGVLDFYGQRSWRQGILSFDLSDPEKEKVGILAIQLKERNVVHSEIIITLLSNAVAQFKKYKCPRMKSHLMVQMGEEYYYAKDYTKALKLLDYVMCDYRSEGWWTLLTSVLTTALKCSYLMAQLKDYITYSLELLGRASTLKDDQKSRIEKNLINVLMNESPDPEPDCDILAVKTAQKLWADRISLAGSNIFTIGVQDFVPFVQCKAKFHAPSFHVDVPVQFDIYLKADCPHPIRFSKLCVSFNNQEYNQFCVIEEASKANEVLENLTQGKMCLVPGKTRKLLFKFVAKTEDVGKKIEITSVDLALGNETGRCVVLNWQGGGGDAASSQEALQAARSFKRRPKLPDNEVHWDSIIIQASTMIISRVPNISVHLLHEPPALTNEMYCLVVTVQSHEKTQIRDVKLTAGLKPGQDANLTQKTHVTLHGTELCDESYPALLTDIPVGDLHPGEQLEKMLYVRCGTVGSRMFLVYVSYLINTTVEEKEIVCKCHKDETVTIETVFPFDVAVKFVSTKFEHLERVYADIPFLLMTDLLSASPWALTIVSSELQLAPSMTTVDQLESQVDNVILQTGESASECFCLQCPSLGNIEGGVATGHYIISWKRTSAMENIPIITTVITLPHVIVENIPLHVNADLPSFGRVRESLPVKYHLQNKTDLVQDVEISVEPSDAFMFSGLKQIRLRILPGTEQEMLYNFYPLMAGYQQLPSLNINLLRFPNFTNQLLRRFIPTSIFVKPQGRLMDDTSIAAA
# UniProt Q6IAA8, whole entry: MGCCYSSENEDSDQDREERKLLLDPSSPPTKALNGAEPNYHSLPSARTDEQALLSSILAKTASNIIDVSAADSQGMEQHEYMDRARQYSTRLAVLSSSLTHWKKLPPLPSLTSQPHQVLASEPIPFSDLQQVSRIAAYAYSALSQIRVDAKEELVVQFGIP
# UniProt Q6UXN9, whole entry: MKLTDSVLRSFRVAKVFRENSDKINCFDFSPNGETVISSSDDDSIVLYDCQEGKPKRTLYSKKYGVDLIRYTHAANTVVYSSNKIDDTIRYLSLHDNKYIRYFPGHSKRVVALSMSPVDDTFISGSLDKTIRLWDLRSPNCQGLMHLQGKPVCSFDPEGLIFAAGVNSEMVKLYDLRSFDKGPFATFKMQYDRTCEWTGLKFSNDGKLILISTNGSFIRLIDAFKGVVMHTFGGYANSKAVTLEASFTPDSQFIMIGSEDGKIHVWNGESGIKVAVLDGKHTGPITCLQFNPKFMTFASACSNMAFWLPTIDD
# UniProt Q6PD74: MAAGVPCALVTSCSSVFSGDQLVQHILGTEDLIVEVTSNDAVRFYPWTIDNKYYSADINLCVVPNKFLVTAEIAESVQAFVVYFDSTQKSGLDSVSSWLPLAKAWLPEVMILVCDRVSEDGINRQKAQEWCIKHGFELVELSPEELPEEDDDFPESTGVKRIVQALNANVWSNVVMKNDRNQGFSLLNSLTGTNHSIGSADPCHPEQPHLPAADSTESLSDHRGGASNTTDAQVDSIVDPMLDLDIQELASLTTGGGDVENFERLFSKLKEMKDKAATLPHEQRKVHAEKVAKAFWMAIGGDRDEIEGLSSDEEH
# UniProt Q6Y1H2: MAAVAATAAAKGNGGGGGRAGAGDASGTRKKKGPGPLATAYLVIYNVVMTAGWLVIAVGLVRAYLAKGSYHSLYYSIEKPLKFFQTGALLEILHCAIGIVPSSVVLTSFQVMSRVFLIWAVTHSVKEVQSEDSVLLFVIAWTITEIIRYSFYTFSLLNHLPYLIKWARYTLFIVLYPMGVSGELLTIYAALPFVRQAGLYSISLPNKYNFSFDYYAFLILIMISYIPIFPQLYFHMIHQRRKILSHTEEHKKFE
# UniProt Q6IC98: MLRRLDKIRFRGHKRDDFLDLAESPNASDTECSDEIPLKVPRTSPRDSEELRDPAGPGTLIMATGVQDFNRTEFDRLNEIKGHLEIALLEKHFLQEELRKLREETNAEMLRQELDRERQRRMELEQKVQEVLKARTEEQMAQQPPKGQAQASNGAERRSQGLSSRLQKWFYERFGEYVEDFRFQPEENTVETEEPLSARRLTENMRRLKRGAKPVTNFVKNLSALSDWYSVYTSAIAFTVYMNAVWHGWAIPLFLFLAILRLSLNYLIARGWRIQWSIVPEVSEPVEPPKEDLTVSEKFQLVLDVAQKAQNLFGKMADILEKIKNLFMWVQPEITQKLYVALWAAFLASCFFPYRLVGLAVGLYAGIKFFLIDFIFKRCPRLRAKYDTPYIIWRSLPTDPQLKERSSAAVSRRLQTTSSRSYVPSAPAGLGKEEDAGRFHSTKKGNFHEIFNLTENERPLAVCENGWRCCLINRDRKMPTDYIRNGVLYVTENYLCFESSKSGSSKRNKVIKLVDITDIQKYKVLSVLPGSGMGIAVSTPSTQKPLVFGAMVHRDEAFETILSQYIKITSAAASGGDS
# UniProt Q69YN2: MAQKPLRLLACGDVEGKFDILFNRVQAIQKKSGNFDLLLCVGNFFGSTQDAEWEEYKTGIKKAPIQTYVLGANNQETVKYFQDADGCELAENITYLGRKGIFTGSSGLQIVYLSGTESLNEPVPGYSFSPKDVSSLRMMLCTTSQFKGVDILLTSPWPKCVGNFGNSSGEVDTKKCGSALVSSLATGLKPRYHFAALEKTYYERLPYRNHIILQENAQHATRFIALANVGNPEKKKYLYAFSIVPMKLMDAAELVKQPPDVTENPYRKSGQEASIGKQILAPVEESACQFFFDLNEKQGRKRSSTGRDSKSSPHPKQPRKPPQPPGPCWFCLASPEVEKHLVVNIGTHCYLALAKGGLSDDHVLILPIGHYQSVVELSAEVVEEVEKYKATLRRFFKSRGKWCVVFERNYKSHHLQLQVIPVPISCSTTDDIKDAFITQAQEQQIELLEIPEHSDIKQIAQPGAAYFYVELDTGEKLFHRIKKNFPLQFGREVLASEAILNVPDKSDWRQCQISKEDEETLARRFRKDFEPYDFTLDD
# UniProt Q6ZMD2: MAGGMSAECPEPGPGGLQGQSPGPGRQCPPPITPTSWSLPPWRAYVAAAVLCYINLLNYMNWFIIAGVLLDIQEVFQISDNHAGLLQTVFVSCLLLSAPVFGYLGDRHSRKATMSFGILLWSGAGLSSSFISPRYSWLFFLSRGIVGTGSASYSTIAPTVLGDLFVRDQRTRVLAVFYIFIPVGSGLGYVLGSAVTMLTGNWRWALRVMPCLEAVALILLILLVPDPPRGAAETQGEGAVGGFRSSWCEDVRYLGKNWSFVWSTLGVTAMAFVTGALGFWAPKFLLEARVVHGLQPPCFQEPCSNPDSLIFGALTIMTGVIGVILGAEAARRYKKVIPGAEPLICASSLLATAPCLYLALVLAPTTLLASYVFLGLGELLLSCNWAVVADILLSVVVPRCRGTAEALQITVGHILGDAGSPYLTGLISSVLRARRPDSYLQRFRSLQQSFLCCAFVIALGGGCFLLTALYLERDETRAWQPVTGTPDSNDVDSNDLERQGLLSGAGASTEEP
# UniProt Q63HQ0: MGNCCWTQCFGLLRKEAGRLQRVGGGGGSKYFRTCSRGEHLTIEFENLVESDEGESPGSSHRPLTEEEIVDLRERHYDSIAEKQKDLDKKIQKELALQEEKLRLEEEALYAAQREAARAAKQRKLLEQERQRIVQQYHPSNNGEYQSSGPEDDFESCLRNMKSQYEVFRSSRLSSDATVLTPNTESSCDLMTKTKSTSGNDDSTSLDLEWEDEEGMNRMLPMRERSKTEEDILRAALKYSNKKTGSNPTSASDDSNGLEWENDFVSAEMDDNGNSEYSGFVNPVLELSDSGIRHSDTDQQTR
# UniProt Q6VMQ6: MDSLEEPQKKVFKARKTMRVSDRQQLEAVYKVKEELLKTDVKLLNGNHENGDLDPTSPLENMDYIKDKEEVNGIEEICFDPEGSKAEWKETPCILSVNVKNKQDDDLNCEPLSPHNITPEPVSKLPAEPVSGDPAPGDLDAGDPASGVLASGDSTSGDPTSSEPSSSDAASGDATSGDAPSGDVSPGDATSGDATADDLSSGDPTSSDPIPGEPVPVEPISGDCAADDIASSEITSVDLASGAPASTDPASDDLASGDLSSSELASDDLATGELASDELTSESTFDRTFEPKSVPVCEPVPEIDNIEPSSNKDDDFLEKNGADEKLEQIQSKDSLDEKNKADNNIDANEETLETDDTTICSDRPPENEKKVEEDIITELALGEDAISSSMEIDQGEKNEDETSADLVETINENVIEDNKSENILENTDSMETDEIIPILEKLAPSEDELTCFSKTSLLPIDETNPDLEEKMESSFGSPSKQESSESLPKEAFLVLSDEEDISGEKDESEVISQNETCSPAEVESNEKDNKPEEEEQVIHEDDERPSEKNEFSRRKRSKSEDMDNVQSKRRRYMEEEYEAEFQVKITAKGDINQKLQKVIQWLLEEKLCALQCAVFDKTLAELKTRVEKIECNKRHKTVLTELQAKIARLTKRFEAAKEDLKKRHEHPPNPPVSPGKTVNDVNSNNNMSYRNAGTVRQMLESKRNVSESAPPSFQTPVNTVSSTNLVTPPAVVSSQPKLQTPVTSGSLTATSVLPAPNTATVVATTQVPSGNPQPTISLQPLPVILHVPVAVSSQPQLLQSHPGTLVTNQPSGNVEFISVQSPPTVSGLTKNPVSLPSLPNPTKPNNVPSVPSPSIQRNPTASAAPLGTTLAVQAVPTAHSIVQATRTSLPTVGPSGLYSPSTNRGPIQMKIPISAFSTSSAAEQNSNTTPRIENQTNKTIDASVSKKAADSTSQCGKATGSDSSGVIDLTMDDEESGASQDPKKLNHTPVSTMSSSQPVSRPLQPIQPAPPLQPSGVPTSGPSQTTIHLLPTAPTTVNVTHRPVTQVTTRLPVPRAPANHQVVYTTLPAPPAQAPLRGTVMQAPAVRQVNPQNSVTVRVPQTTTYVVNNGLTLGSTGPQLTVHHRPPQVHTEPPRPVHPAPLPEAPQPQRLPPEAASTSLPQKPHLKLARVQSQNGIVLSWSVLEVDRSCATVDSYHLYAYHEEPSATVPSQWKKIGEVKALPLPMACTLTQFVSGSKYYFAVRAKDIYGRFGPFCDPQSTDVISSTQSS
# UniProt Q5VTR2, whole entry: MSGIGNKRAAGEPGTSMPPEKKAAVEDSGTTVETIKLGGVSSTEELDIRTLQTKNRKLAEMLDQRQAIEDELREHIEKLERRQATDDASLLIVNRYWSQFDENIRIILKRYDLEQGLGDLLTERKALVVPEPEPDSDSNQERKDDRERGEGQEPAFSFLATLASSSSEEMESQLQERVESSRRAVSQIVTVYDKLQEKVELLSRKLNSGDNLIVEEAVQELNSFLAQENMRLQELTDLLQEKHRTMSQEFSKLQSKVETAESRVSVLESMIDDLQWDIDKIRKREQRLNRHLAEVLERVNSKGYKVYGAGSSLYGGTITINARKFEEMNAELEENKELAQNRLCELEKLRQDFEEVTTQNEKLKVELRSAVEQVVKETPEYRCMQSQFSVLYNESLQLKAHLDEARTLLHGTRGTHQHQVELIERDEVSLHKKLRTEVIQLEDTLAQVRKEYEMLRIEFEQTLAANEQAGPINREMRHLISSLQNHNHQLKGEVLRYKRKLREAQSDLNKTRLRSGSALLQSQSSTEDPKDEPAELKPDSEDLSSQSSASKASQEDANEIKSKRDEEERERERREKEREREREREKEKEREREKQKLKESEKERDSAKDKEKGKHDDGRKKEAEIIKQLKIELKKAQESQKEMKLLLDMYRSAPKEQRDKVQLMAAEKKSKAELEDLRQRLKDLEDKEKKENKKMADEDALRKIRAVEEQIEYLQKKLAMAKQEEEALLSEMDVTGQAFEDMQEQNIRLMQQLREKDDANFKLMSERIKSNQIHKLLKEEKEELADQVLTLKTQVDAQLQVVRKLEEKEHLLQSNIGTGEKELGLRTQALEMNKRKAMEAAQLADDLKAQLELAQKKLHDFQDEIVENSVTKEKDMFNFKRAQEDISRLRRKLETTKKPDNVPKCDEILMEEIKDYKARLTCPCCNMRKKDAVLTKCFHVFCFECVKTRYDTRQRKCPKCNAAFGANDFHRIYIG
# ± gives the standard deviation of the averaged measurements. The entries are a selection whose mix differs from that of the whole data set. Most entries show no effect beyond the scatter of the controls.
# Compound: Nc1ncnc2c1ncn2[C@@H]1O[C@H](COP(=O)(O)OP(=O)(O)NP(=O)(O)O)[C@@H](O)[C@H]1O [adenylyl imidodiphosphate]
# Assay: NP40-soluble protein abundance relative to vehicle (solubility fold change) (ratio); higher = more soluble protein in presence of AMP-PNP
# Details: concentration: 0.1mM
# Procedure, shortened: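 Eight concentrations, 0.1 to 10 mM, were tested on Jurkat crude lysate for 10 min at room temperature and then 3 min at 37 °C, in three independent experiments. The lysate was solubilised with 0.8% NP40 and benzonase, ultracentrifuged, and the supernatant TMT-labelled for LC-MS/MS. Each value is the fold change against the detergent-processed vehicle in its own replicate, from vsn-normalised intensities.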
row,Target,NP40-soluble protein abundance
1,Q5W125 and related entries (UniProt Q9NWW6),0.9741 ± 0.0059
2,UniProt Q7Z392,1.02 ± 0.045
3,UniProt Q7Z3B4 and related entries,1.01 ± 0.022
4,NUDT18 (UniProt Q6ZVK8),0.984 ± 0.011
5,BLOC1S3 (UniProt Q6QNY0),1.02 ± 0.033
6,DNMBP (UniProt Q6XZF7),1.02 ± 0.022
7,NUFIP2 (UniProt Q7Z417),1 ± 0.032
8,UniProt Q7Z3C6 and related entries,1 ± 0.043
9,UniProt Q68CP9 and related entries,1.05 ± 0.014
10,UniProt Q6IAA8 and related entries,0.988 ± 0.021
11,UniProt Q6UXN9 and related entries,1.06 ± 0.025
12,UniProt Q5VVQ6 and related entries,0.978 ± 0.067
13,Q5VY60 and related entries (UniProt Q7Z4H7),1.05 ± 0.03
14,UniProt Q6NYC1 and related entries,1.03 ± 0.011
15,AAGAB (UniProt Q6PD74),1.03 ± 0.017
16,NADSYN1 (UniProt Q6IA69),1.02 ± 0.057
17,UniProt Q5W0U4,0.9878 ± 0.0048
18,UniProt Q5VIR6-4,1.02 ± 0.024
19,PPP2R2D (UniProt Q66LE6),1.009 ± 0.0063

# Part of the list above, as tab-separated lines.
row	Target	NP40-soluble protein abundance
12	UniProt Q5VVQ6 and related entries	0.978 ± 0.067
13	Q5VY60 and related entries (UniProt Q7Z4H7)	1.05 ± 0.03

# The listing continues.

row,Target,NP40-soluble protein abundance
1,PAXIP1 (UniProt Q6ZW49),1.01 ± 0.031
2,UniProt Q7Z333 and related entries,1.01 ± 0.048
3,UniProt Q5VYS8 and related entries,1.016 ± 0.0097
4,UniProt Q7Z591 and related entries,0.9872 ± 0.0045
5,PHLDB3 (UniProt Q6NSJ2),1.02 ± 0.015
6,UniProt Q6Y1H2,0.984 ± 0.04
7,GRAMD4 (UniProt Q6IC98),0.994 ± 0.015
8,CWF19L1 (UniProt Q69YN2),0.9537 ± 0.0092
9,SPNS3 (UniProt Q6ZMD2),1.014 ± 0.0042
10,UniProt Q63HQ0,0.9548 ± 0.001
11,C16orf87 (UniProt Q6PH81),0.971 ± 0.021
12,UniProt Q6NW34 and related entries,0.978 ± 0.043
13,KCTD9 (UniProt Q7L273),0.989 ± 0.02
14,UniProt Q6VMQ6 and related entries,0.981 ± 0.019
15,UniProt Q6GPH4 and related entries,1.02 ± 0.025
16,UniProt Q6PI26 and related entries,0.999 ± 0.015
17,UniProt Q68EM7-2|Q68EM7-3|Q68EM7,0.99 ± 0.033
18,UniProt Q6PJT7-2|Q6PJT7-3|Q6PJT7-5|Q6PJT7-9|Q6PJT7,0.98 ± 0.014
19,RNF20 (UniProt Q5VTR2),0.991 ± 0.031
